Record: PubChem BioAssay AID1224827 (NIAID, 2016)
Assay: 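Retest primary hits on a TNF reporter with six siRNAs per gene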 (follow-up of hits). Cell system: RAW264.7 G9 mouse macrophage reporter clone. Reagents: single siRNA against mouse genes, 100 nM siRNA. Duration: siRNA for 2 days, then LPS about 16 h. Treatment: bacterial lipopolysaccharide (LPS), 10 ng/ml, cells fixed after overnight (about 16 h) stimulation. Measured: 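TNF promoter reporter red fluorescence in nuclei, background subtracted, normalised per plate and to non-targeting control siRNA, as z-scores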. Scale: TNF reporter z-score, mean and TNF reporter z-score: higher = stronger Tnf promoter reporter signal; gene median z, three same-vendor siRNAs: higher = stronger Tnf reporter signal for the gene. Call rule: 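An siRNA is called active when its mean z-score over replicates is at least +2 or at most -2; control wells get no call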.
This is a random part of about 3,800 reagents. Over the whole deposit, about 2,200 (57%) were called active. 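Active means a strong reporter change in either direction; calls are per siRNA, not per gene; qiagen siRNAs gave weaker effects.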 Unmarked entries are inactive. The numbers tell different reagents against one gene apart.

no.	target	reagent no.	TNF reporter z-score, mean	gene median z, three same-vendor siRNAs	TNF reporter z-score, repeat 1	TNF reporter z-score, repeat 2
1	Tmem71	1	-1.97	-2.29	-2.22	-1.73
2	Tmem71	2	-2.1 (active)	-2.29	-2.37	-1.83
3	Tmem71	3	-5.91 (active)	-2.29	-6.1	-5.72
4	Tmem71	4	5.61 (active)	1.87	8.68	2.53
5	Tmem71	5	0.758	1.87	1.46	0.0544
6	Tmem71	6	0.643	1.87	2.28	-0.994
7	Creb5	1	0.782	-0.586	1.25	0.315
8	Creb5	2	1.14	-0.586	3.76	-1.49
9	Creb5	3	-4.4 (active)	-0.586	-4.74	-4.06
10	Gabra5	1	9.09 (active)	-2.11	5.55	12.6
11	Gabra5	2	-2.35 (active)	-2.11	-3.06	-1.65
12	Gabra5	3	-2.93 (active)	-2.11	-2.57	-3.3
13	Gabra5	4	1.66	-0.228	3.57	-0.258
14	Gabra5	5	0.686	-0.228	1.67	-0.3
15	Gabra5	6	-0.966	-0.228	-0.198	-1.73
16	Plpp1	1	-1.84	-2.81	-2.25	-1.43
17	Plpp1	2	-3.21 (active)	-2.81	-3.08	-3.35
18	Plpp1	3	-3.26 (active)	-2.81	-3.97	-2.54
19	Plpp1	4	0.322	-2.43	1.43	-0.784
20	Plpp1	5	-2.43 (active)	-2.43	-2.29	-2.57
21	Plpp1	6	-3.88 (active)	-2.43	-4.24	-3.52
22	Kash5	1	-0.351	-2.93	-2.21	1.51
23	Kash5	2	-3.09 (active)	-2.93	-1.74	-4.43
24	Kash5	3	-3.77 (active)	-2.93	-3.9	-3.65
25	Kash5	4	0.0126	-1.62	1.62	-1.59
26	Kash5	5	-1.19	-1.62	-0.446	-1.92
27	Kash5	6	-2.54 (active)	-1.62	-3.42	-1.65
28	A730013G03Rik	1	0.0554	-1.75	-0.925	1.04
29	A730013G03Rik	2	-0.421	-1.75	-2.57	1.73
30	A730013G03Rik	3	-3.69 (active)	-1.75	-4.05	-3.33
31	A730013G03Rik	4	4.02 (active)	1.97	5.97	2.07
32	A730013G03Rik	5	4.37 (active)	1.97	6.86	1.88
33	A730013G03Rik	6	0.491	1.97	0.822	0.16

Continued (6 carried over from the part before).
no.	target	reagent no.	TNF reporter z-score, mean	gene median z, three same-vendor siRNAs	TNF reporter z-score, repeat 1	TNF reporter z-score, repeat 2
28	A730013G03Rik	1	0.0554	-1.75	-0.925	1.04
29	A730013G03Rik	2	-0.421	-1.75	-2.57	1.73
30	A730013G03Rik	3	-3.69 (active)	-1.75	-4.05	-3.33
31	A730013G03Rik	4	4.02 (active)	1.97	5.97	2.07
32	A730013G03Rik	5	4.37 (active)	1.97	6.86	1.88
33	A730013G03Rik	6	0.491	1.97	0.822	0.16
34	Slc16a10	1	-0.879	-1.46	-0.907	-0.851
35	Slc16a10	2	-1.46	-1.46	-1.57	-1.35
36	Slc16a10	3	-6.64 (active)	-1.46	-5.84	-7.44
37	Slc16a10	4	0.896	0.0781	2.62	-0.825
38	Slc16a10	5	0.662	0.0781	1.83	-0.503
39	Slc16a10	6	-0.359	0.0781	0.659	-1.38
40	Tceal6	1	3.61 (active)	0.686	6.46	0.769
41	Tceal6	2	2.93 (active)	0.686	5.42	0.436
42	Tceal6	3	0.00825	0.686	0.602	-0.586
43	Washc2	1	-0.373	-2.19	-0.677	-0.0692
44	Washc2	2	-1.57	-2.19	0.567	-3.7
45	Washc2	3	-3.73 (active)	-2.19	-3.76	-3.71
46	Washc2	4	1.6	0.0205	2.93	0.278
47	Washc2	5	0.296	0.0205	0.83	-0.237
48	Washc2	6	-1.53	0.0205	-0.264	-2.81
49	Dclre1b	1	0.97	-2.96	0.516	1.42
50	Dclre1b	2	-2.96 (active)	-2.96	-3.22	-2.69
51	Dclre1b	3	-3.98 (active)	-2.96	-3.97	-3.98
52	Dclre1b	4	0.958	-0.765	2.47	-0.558
53	Dclre1b	5	0.8	-0.765	2.67	-1.07
54	Dclre1b	6	-1.25	-0.765	-0.972	-1.54
55	Ptpn3	1	1.68	-0.56	3.5	-0.14
56	Ptpn3	2	-0.0624	-0.56	0.856	-0.981
57	Ptpn3	3	-1.94	-0.56	-1.47	-2.42
58	Folr1	1	2.1 (active)	0.619	0.0746	4.13
59	Folr1	2	0.44	0.619	-0.712	1.59
60	Folr1	3	-0.316	0.619	-1.8	1.16
61	Folr1	4	-0.016	-1.23	0.941	-0.973
62	Folr1	5	-0.585	-1.23	0.309	-1.48
63	Folr1	6	-3.25 (active)	-1.23	-3.67	-2.83
64	Pon2	1	0.376	-4.38	0.33	0.423
65	Pon2	2	-4.49 (active)	-4.38	-4.28	-4.69
66	Pon2	3	-4.95 (active)	-4.38	-5.44	-4.47
67	Pon2	4	-0.399	-1.43	0.666	-1.47
68	Pon2	5	-0.613	-1.43	0.171	-1.4
69	Pon2	6	-3.7 (active)	-1.43	-4.29	-3.12
70	Acox2	1	2.06 (active)	-0.407	2.24	1.88
71	Acox2	2	-0.407	-0.407	-1.25	0.439
72	Acox2	3	-5.93 (active)	-0.407	-6.26	-5.61
73	Acox2	4	-0.353	-1.15	0.476	-1.18
74	Acox2	5	-0.672	-1.15	-0.228	-1.12
75	Acox2	6	-2.02 (active)	-1.15	-2.4	-1.64
